Measurements reported in patent US12729225B2, “Non-canonical SWI/SNF complex and uses thereof” (Dana-Farber Cancer Institute, Inc., priority 2018, dated 2026).

B1: U2AF2 (protein, UniProt P26368 2-475, looked up)
Splicing factor U2AF 65 kDa …: SDFDEFERQLNENKQERDKENRHRKRSHSRSRSRDRKRRSRSRDRRNRDQRSASRDRRRRSKPLTRGAKEEHGGLIRSPRHEKKKKVRKYWDVPPPGFEHITPMQYKAMQAAGQIPATALLPTMTPDGLAVTPTPVPVVGSQMTRQARRLYVGNIPFGITEEAMMDFFNAQMRLGGLTQAPGNPVLAVQINQDKNFAFLEFRSVDETTQAMAFDGIIFQGQSLKIRRPHDYQPLPGMSENPSVYVPGVVSTVVPDSAHKLFIGGLPNYLNDDQVKELLTSFGPLKAFNLVKDSATGLSKGYAFCEYVDINVTDQAIAGLNGMQLGDKKLLVQRASVGAKNATLVSPPSTINQTPVTLQVPGLMSSQVQMGGHPTEVLCLMNMVLPEELLDDEEYEEIVEDVRDECSKYGLVKSIEIPRPVDGVEVPGCGKIFVEFTSVFDCQKAMQGLTGRKFANRVVVTKYCDPDSYHRRDFW
B2: RRP12 (protein, UniProt Q5JTH9 1-1297, looked up)
RRP12-like protein: MGRSGKLPSGVSAKLKRWKKGHSSDSNPAICRHRQAARSRFFSRPSGRSDLTVDAVKLHNELQSGSLRLGKSEAPETPMEEEAELVLTEKSSGTFLSGLSDCTNVTFSKVQRFWESNSAAHKEICAVLAAVTEVIRSQGGKETETEYFAALMTTMEAVESPESLAAVAYLLNLVLKRVPSPVLIKKFSDTSKAFMDIMSAQASSGSTSVLRWVLSCLATLLRKQDLEAWGYPVTLQVYHGLLSFTVHPKPKIRKAAQHGVCSVLKGSEFMFEKAPAHHPAAISTAKFCIQEIEKSGGSKEATTTLHMLTLLKDLLPCFPEGLVKSCSETLLRVMTLSHVLVTACAMQAFHSLFHARPGLSTLSAELNAQIITALYDYVPSENDLQPLLAWLKVMEKAHINLVRLQWDLGLGHLPRFFGTAVTCLLSPHSQVLTAATQSLKEILKECVAPHMADIGSVTSSASGPAQSVAKMFRAVEEGLTYKFHAAWSSVLQLLCVFFEACGRQAHPVMRKCLQSLCDLRLSPHFPHTAALDQAVGAAVTSMGPEVVLQAVPLEIDGSEETLDFPRSWLLPVIRDHVQETRLGFFTTYFLPLANTLKSKAMDLAQAGSTVESKIYDTLQWQMWTLLPGFCTRPTDVAISFKGLARTLGMAISERPDLRVTVCQALRTLITKGCQAEADRAEVSRFAKNFLPILFNLYGQPVAAGDTPAPRRAVLETIRTYLTITDTQLVNSLLEKASEKVLDPASSDFTRLSVLDLVVALAPCADEAAISKLYSTIRPYLESKAHGVQKKAYRVLEEVCASPQGPGALFVQSHLEDLKKTLLDSLRSTSSPAKRPRLKCLLHIVRKLSAEHKEFITALIPEVILCTKEVSVGARKNAFALLVEMGHAFLRFGSNQEEALQCYLVLIYPGLVGAVTMVSCSILALTHLLFEFKGLMGTSTVEQLLENVCLLLASRTRDVVKSALGFIKVAVTVMDVAHLAKHVQLVMEAIGKLSDDMRRHFRMKLRNLFTKFIRKFGFELVKRLLPEEYHRVLVNIRKAEARAKRHRALSQAAVEEEEEEEEEEEPAQGKGDSIEEILADSEDEEDNEEEERSRGKEQRKLARQRSRAWLKEGGGDEPLNFLDPKVAQRVLATQPGPGRGRKKDHGFKVSADGRLIIREEADGNKMEEEEGAKGEDEEMADPMEDVIIRNKKHQKLKHQKEAEEEELEIPPQYQAGGSGIHRPVAKKAMPGAEYKAKKAKGDVKKKGRPDPYAYIPLNRSKLNRRKKMKLQGQFKGLVKAARRGSQVGHKNRRKDRRP
B3: IKZF2 (protein, UniProt Q9UKS7 1-526, looked up)
Zinc finger protein Helios: METEAIDGYITCDNELSPEREHSNMAIDLTSSTPNGQHASPSHMTSTNSVKLEMQSDEECDRKPLSREDEIRGHDEGSSLEEPLIESSEVADNRKVQELQGEGGIRLPNGKLKCDVCGMVCIGPNVLMVHKRSHTGERPFHCNQCGASFTQKGNLLRHIKLHSGEKPFKCPFCSYACRRRDALTGHLRTHSVGKPHKCNYCGRSYKQRSSLEEHKERCHNYLQNVSMEAAGQVMSHHVPPMEDCKEQEPIMDNNISLVPFERPAVIEKLTGNMGKRKSSTPQKFVGEKLMRFSYPDIHFDMNLTYEKEAELMQSHMMDQAINNAITYLGAEALHPLMQHPPSTIAEVAPVISSAYSQVYHPNRIERPISRETADSHENNMDGPISLIRPKSRPQEREASPSNSCLDSTDSESSHDDHQSYQGHPALNPKRKQSPAYMKEDVKALDTTKAPKGSLKDIYKVFNGEGEQIRAFKCEHCRVLFLDHVMYTIHMGCHGYRDPLECNICGYRSQDRYEFSSHIVRGEHTFH

These molecules were tested on mSWI/SNF complexes (assay: mSWI/SNF complex purification with HA-tagged baits and mass spectrometry (peptide counts)). Settings: 293_HA-BRD7: HA-BRD7 bait purification, total peptide count per co-purified protein.
Parameters: species or system human

Row | Molecule | Total
1 | B1 | 58
2 | B2 | 5
3 | B3 | 5

Same assay, conditions: 293_HA-BRD7: HA-BRD7 bait purification, unique peptide count per co-purified protein

Row | Molecule | Unique
4 | B1 | 29
5 | B2 | 5
6 | B3 | 5
